Results are given in words; binding and its absence hold for the method and conditions named. In cells and extracts the contact can be indirect. Here binding means that the protein was enriched with, or labelled near, the bait; the list need not be complete.

By UniProt entry, the sequences of proteins in these tests, tags left out.
UniProt P03372: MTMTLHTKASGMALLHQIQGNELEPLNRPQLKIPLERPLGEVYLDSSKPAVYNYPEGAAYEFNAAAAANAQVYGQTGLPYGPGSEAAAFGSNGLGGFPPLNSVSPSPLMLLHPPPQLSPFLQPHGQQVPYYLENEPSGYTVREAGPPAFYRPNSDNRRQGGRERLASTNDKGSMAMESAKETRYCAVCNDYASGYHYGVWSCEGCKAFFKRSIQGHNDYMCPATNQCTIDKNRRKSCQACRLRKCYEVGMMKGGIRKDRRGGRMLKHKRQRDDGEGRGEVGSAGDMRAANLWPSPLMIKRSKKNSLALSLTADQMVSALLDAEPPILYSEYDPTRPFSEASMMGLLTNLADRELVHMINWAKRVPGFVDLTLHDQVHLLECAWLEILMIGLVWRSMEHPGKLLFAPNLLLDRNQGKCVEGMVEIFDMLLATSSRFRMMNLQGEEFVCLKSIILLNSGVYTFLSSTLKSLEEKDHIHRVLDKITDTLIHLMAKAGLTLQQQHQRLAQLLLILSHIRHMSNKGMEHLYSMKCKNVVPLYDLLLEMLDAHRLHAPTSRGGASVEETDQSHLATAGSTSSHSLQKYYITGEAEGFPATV

B1: COPB2 (protein, UniProt P35606 1-906)
chain: MPLRLDIKRKLTARSDRVKSVDLHPTEPWMLASLYNGSVCVWNHETQTLVKTFEVCDLPVRAAKFVARKNWVVTGADDMQIRVFNYNTLERVHMFEAHSDYIRCIAVHPTQPFILTSSDDMLIKLWDWDKKWSCSQVFEGHTHYVMQIVINPKDNNQFASASLDRTIKVWQLGSSSPNFTLEGHEKGVNCIDYYSGGDKPYLISGADDRLVKIWDYQNKTCVQTLEGHAQNVSCASFHPELPIIITGSEDGTVRIWHSSTYRLESTLNYGMERVWCVASLRGSNNVALGYDEGSIIVKLGREEPAMSMDANGKIIWAKHSEVQQANLKAMGDAEIKDGERLPLAVKDMGSCEIYPQTIQHNPNGRFVVVCGDGEYIIYTAMALRNKSFGSAQEFAWAHDSSEYAIRESNSIVKIFKNFKEKKSFKPDFGAESIYGGFLLGVRSVNGLAFYDWDNTELIRRIEIQPKHIFWSDSGELVCIATEESFFILKYLSEKVLAAQETHEGVTEDGIEDAFEVLGEIQEIVKTGLWVGDCFIYTSSVNRLNYYVGGEIVTIAHLDRTMYLLGYIPKDNRLYLGDKELNIISYSLLVSVLEYQTAVMRRDFSMADKVLPTIPKEQRTRVAHFLEKQGFKQQALTVSTDPEHRFELALQLGELKIAYQLAVEAESEQKWKQLAELAISKCQFGLAQECLHHAQDYGGLLLLATASGNANMVNKLAEGAERDGKNNVAFMSYFLQGKVDACLELLIRTGRLPEAAFLARTYLPSQVSRVVKLWRENLSKVNQKAAESLADPTEYENLFPGLKEAFVVEEWVKETHADLWPAKQYPLVTPNEERNVMEEGKDFQPSRSTAQQELDGKPASPTPVIVASHTANKEEKSLLELEVDLDNLELEDIDTTDINLDEDILDD
B2: COG3 (protein, UniProt Q96JB2 1-828)
chain: MAEAALLLLPEAAAERDAREKLALWDRRPDTTAPLTDRQTDSVLELKAAAENLPVPAELPIEDLCSLTSQSLPIELTSVVPESTEDILLKGFTSLGMEEERIETAQQFFSWFAKLQTQMDQDEGTKYRQMRDYLSGFQEQCDAILNDVNSALQHLESLQKQYLFVSNKTGTLHEACEQLLKEQSELVDLAENIQQKLSYFNELETINTKLNSPTLSVNSDGFIPMLAKLDDCITYISSHPNFKDYPIYLLKFKQCLSKALHLMKTYTVNTLQTLTSQLLKRDPSSVPNADNAFTLFYVKFRAAAPKVRTLIEQIELRSEKIPEYQQLLNDIHQCYLDQRELLLGPSIACTVAELTSQNNRDHCALVRSGCAFMVHVCQDEHQLYNEFFTKPTSKLDELLEKLCVSLYDVFRPLIIHVIHLETLSELCGILKNEVLEDHVQNNAEQLGAFAAGVKQMLEDVQERLVYRTHIYIQTDITGYKPAPGDLAYPDKLVMMEQIAQSLKDEQKKVPSEASFSDVHLEEGESNSLTKSGSTESLNPRPQTTISPADLHGMWYPTVRRTLVCLSKLYRCIDRAVFQGLSQEALSACIQSLLGASESISKNKTQIDGQLFLIKHLLILREQIAPFHTEFTIKEISLDLKKTRDAAFKILNPMTVPRFFRLNSNNALIEFLLEGTPEIREHYLDSKKDVDRHLKSACEQFIQQQTKLFVEQLEEFMTKVSALKTMASQGGPKYTLSQQPWAQPAKVNDLAATAYKTIKTKLPVTLRSMSLYLSNKDTEFILFKPVRNNIQQVFQKFHALLKEEFSPEDIQIIACPSMEQLSLLLLVSK
B3: COG8 (protein, UniProt Q96MW5 1-612)
chain: MATAATIPSVATATAAALGEVEDEGLLASLFRDRFPEAQWRERPDVGRYLRELSGSGLERLRREPERLAEERAQLLQQTRDLAFANYKTFIRGAECTERIHRLFGDVEASLGRLLDRLPSFQQSCRNFVKEAEEISSNRRMNSLTLNRHTEILEILEIPQLMDTCVRNSYYEEALELAAYVRRLERKYSSIPVIQGIVNEVRQSMQLMLSQLIQQLRTNIQLPACLRVIGYLRRMDVFTEAELRVKFLQARDAWLRSILTAIPNDDPYFHITKTIEASRVHLFDIITQYRAIFSDEDPLLPPAMGEHTVNESAIFHGWVLQKVSQFLQVLETDLYRGIGGHLDSLLGQCMYFGLSFSRVGADFRGQLAPVFQRVAISTFQKAIQETVEKFQEEMNSYMLISAPAILGTSNMPAAVPATQPGTLQPPMVLLDFPPLACFLNNILVAFNDLRLCCPVALAQDVTGALEDALAKVTKIILAFHRAEEAAFSSGEQELFVQFCTVFLEDLVPYLNRCLQVLFPPAQIAQTLGIPPTQLSKYGNLGHVNIGAIQEPLAFILPKRETLFTLDDQALGPELTAPAPEPPAEEPRLEPAGPACPEGGRAETQAEPPSVGP
B4: NUP155 (protein, UniProt O75694 1-1391)
chain: MPSSLLGAAMPASTSAAALQEALENAGRLIDRQLQEDRMYPDLSELLMVSAPNNPTVSGMSDMDYPLQGPGLLSVPNLPEISSIRRVPLPPELVEQFGHMQCNCMMGVFPPISRAWLTIDSDIFMWNYEDGGDLAYFDGLSETILAVGLVKPKAGIFQPHVRHLLVLATPVDIVILGLSYANLQTGSGVLNDSLSGGMQLLPDPLYSLPTDNTYLLTITSTDNGRIFLAGKDGCLYEVAYQAEAGWFSQRCRKINHSKSSLSFLVPSLLQFTFSEDDPILQIAIDNSRNILYTRSEKGVIQVYDLGQDGQGMSRVASVSQNAIVSAAGNIARTIDRSVFKPIVQIAVIENSESLDCQLLAVTHAGVRLYFSTCPFRQPLARPNTLTLVHVRLPPGFSASSTVEKPSKVHRALYSKGILLMAASENEDNDILWCVNHDTFPFQKPMMETQMTAGVDGHSWALSAIDELKVDKIITPLNKDHIPITDSPVVVQQHMLPPKKFVLLSAQGSLMFHKLRPVDQLRHLLVSNVGGDGEEIERFFKLHQEDQACATCLILACSTAACDREVSAWATRAFFRYGGEAQMRFPTTLPPPSNVGPILGSPVYSSSPVPSGSPYPNPSFLGTPSHGIQPPAMSTPVCALGNPATQATNMSCVTGPEIVYSGKHNGICIYFSRIMGNIWDASLVVERIFKSGNREITAIESSVPCQLLESVLQELKGLQEFLDRNSQFAGGPLGNPNTTAKVQQRLIGFMRPENGNPQQMQQELQRKFHEAQLSEKISLQAIQQLVRKSYQALALWKLLCEHQFTIIVAELQKELQEQLKITTFKDLVIRDKELTGALIASLINCYIRDNAAVDGISLHLQDICPLLYSTDDAICSKANELLQRSRQVQNKTEKERMLRESLKEYQKISNQVDLSNVCAQYRQVRFYEGVVELSLTAAEKKDPQGLGLHFYKHGEPEEDIVGLQAFQERLNSYKCITDTLQELVNQSKAAPQSPSVPKKPGPPVLSSDPNMLSNEEAGHHFEQMLKLSQRSKDELFSIALYNWLIQVDLADKLLQVASPFLEPHLVRMAKVDQNRVRYMDLLWRYYEKNRSFSNAARVLSRLADMHSTEISLQQRLEYIARAILSAKSSTAISSIAADGEFLHELEEKMEVARIQLQIQETLQRQYSHHSSVQDAVSQLDSELMDITKLYGEFADPFKLAECKLAIIHCAGYSDPILVQTLWQDIIEKELSDSVTLSSSDRMHALSLKIVLLGKIYAGTPRFFPLDFIVQFLEQQVCTLNWDVGFVIQTMNEIGVPLPRLLEVYDQLFKSRDPFWNRMKKPLHLLDCIHVLLIRYVENPSQVLNCERRRFTNLCLDAVCGYLVELQSMSSSVAVQAITGNFKSLQAKLERLH
B5: COG5 (protein, UniProt Q9UP83 1-860)
chain: MGWVGGRRRDSASPPGRSRSAADDINPAPANMEGGGGSVAVAGLGARGSGAAAATVRELLQDGCYSDFLNEDFDVKTYTSQSIHQAVIAEQLAKLAQGISQLDRELHLQVVARHEDLLAQATGIESLEGVLQMMQTRIGALQGAVDRIKAKIVEPYNKIVARTAQLARLQVACDLLRRIIRILNLSKRLQGQLQGGSREITKAAQSLNELDYLSQGIDLSGIEVIENDLLFIARARLEVENQAKRLLEQGLETQNPTQVGTALQVFYNLGTLKDTITSVVDGYCATLEENINSALDIKVLTQPSQSAVRGGPGRSTMPTPGNTAALRASFWTNMEKLMDHIYAVCGQVQHLQKVLAKKRDPVSHICFIEEIVKDGQPEIFYTFWNSVTQALSSQFHMATNSSMFLKQAFEGEYPKLLRLYNDLWKRLQQYSQHIQGNFNASGTTDLYVDLQHMEDDAQDIFIPKKPDYDPEKALKDSLQPYEAAYLSKSLSRLFDPINLVFPPGGRNPPSSDELDGIIKTIASELNVAAVDTNLTLAVSKNVAKTIQLYSVKSEQLLSTQGDASQVIGPLTEGQRRNVAVVNSLYKLHQSVTKVVSSQSSFPLAAEQTIISALKAIHALMENAVQPLLTSVGDAIEAIIITMHQEDFSGSLSSSGKPDVPCSLYMKELQGFIARVMSDYFKHFECLDFVFDNTEAIAQRAVELFIRHASLIRPLGEGGKMRLAADFAQMELAVGPFCRRVSDLGKSYRMLRSFRPLLFQASEHVASSPALGDVIPFSIIIQFLFTRAPAELKSPFQRAEWSHTRFSQWLDDHPSEKDRLLLIRGALEAYVQSVRSREGKEFAPVYPIMVQLLQKAMSALQ
B6: COPG2 (protein, UniProt Q9UBF2 1-871)
chain: MIKKFDKKDEESGSGSNPFQHLEKSAVLQEARIFNETPINPRRCLHILTKILYLLNQGEHFGTTEATEAFFAMTRLFQSNDQTLRRMCYLTIKEMATISEDVIIVTSSLTKDMTGKEDVYRGPAIRALCRITDGTMLQAIERYMKQAIVDKVSSVSSSALVSSLHMMKISYDVVKRWINEAQEAASSDNIMVQYHALGVLYHLRKNDRLAVSKMLNKFTKSGLKSQFAYCMLIRIASRLLKETEDGHESPLFDFIESCLRNKHEMVIYEAASAIIHLPNCTARELAPAVSVLQLFCSSPKPALRYAAVRTLNKVAMKHPSAVTACNLDLENLITDSNRSIATLAITTLLKTGSESSVDRLMKQISSFVSEISDEFKVVVVQAISALCQKYPRKHSVMMTFLSNMLRDDGGFEYKRAIVDCIISIVEENPESKEAGLAHLCEFIEDCEHTVLATKILHLLGKEGPRTPVPSKYIRFIFNRVVLENEAVRAAAVSALAKFGAQNESLLPSILVLLQRCMMDTDDEVRDRATFYLNVLQQRQMALNATYIFNGLTVSVPGMEKALHQYTLEPSEKPFDMKSIPLAMAPVFEQKAEITLVATKPEKLAPSRQDIFQEQLAAIPEFLNIGPLFKSSEPVQLTEAETEYFVRCIKHMFTNHIVFQFDCTNTLNDQLLEKVTVQMEPSDSYEVLSCIPAPSLPYNQPGICYTLVRLPDDDPTAVAGSFSCTMKFTVRDCDPNTGVPDEDGYDDEYVLEDLEVTVSDHIQKVLKPNFAAAWEEVGDTFEKEETFALSSTKTLEEAVNNIITFLGMQPCERSDKVPENKNSHSLYLAGIFRGGYDLLVRSRLALADGVTMQVTVRSKERTPVDVILASVG

The assay has as its target estrogen receptor alpha (ER) (human (endogenous in MCF-7 and ZR-75)) (UniProt P03372). As to the kind of experiment: affinity purification with mass spectrometry; anti-ER antibody (Santa Cruz sc-8002) on Dynabeads Protein G, 1.5 mg lysate of MCF-7 or ZR-75 cells overnight at 4°C; cells starved, vehicle or 10 µM ERX-11 for 2 hr, then 10 nM E2 for 2 hr; the named proteins are ER binders whose co-precipitation was disrupted by ERX-11.
Turning to B1, the binding result is recorded as “binds”.

Take B2: the binding result was “binds”.

As for B3, the binding entry is recorded as “binds”.

As for B4, the binding result is reported as “binds”.

For B5, the binding result is listed as “binds”.

With B6, the binding entry is given as “binds”.

(Values after PMC5548489.)
